These results are taken from PubChem BioAssay AID493014 (National Center for Advancing Translational Sciences (NCATS), 2011).

“And” between values parts separate entries of the source, which are not always exact repeats. Identical values can stand only once. This is one part of the list. The main result of the screen is listed elsewhere. These columns were measured beside it and carry no call. Compounds called inactive in the main read-out are mostly missing here. Potencies come from curve fits of mixed quality, noted in brackets.

The assay is described as follows: qHTS Assay to Find Inhibitors of Chronic Active B-Cell Receptor Signaling. The conditions noted are these: ABC-DLBCL IkBa-CBG/CBR reporter, luminescence ratio (green luciferase fused to IkBa over red control in TMD8 lymphoma cells), 4 h. The procedure, abridged:
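Doxycycline induced both beetle luciferases in TMD8 lymphoma cells; IKK-driven degradation limits the IkappaBalpha-fused green signal, while red luminescence normalises for cell number and nonspecific effects. Compounds tested up to 46 uM, 4 hrs.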

Setting [1] is: measured here: CBR red luminescence, cell number.
Where [2] appears, read: measured here: IkBa-CBG green luminescence.

For `Clc1cccc(-c2ccc3ncnc(NCc4cccs4)c3c2)c1`, the AC50 under setting [1] is 29.1 µM [falling, single point].
For the molecule `O=C(O)C1=C[C@H](c2cccs2)C[C@H](OCc2ccc(CO)cc2)O1`, under setting [2], the AC50 was 11.2 µM [falling, partial curve, poor fit].
Take `CCCN1CCN(CCCNC(=O)c2cc3c(=O)n(C)c4ccccc4c3n2C)CC1`: the AC50 under setting [1] was 7.31 µM [falling, single point].
On the same count and under the same terms, to `C/C(=N\NC(=O)c1cc(C)oc1C)c1ccc(N2CCOCC2)cc1` belongs 35.5 µM [falling, partial curve, poor fit].
As to `CC(C)(c1cc(Br)c(O)c(Br)c1)c1cc(Br)c(O)c(Br)c1`, the AC50 under setting [1] was 18.4 µM [rising, partial curve, poor fit] and the AC50 under setting [2] is 23.1 µM [falling, partial curve, poor fit].
For `COC(=O)CSc1nnc(-c2c[nH]c3ccccc23)o1`, the AC50 under setting [1] is 22.4 µM [falling, single point].
The same measure, in the same setting: next, `Cc1cc(N2CCN(C)CC2)nc2ccc(NC(=S)N3CCN(c4ccccn4)CC3)cc12`: 17.8 µM [falling, partial curve, poor fit].
Same read-out and setting: to `COC(=O)c1cn(Cc2ccccn2)c(=O)c2ccccc12` belongs 8.91 µM [falling, partial curve, poor fit]; to `Cc1cccc(N2C(=O)C(Cc3ccccc3)NC2=S)c1` (stereo not drawn), 8.2 µM [rising, partial curve]; to `CC1=NN(c2ccccc2)C(=O)/C1=C\c1cc(C)n(C)c1C`, 15.8 µM [falling, single point].
Regarding `COc1ccc(OCc2cccc(C(=O)Nn3cc([N+](=O)[O-])cn3)c2)cc1`, the AC50 under setting [1] was 6.51 µM [falling, partial curve, poor fit].
Same read-out and setting: to `CCNC(=O)/C(C#N)=C/c1c(N2CCCCCC2)nc2c(C)cccn2c1=O` belongs 5.01 µM [falling, full curve, poor fit].
Regarding `CCNC(=S)NN=C1c2ccccc2-c2ccccc21`, the AC50 by setting is: under setting [1], 5.62 µM [falling, single point]; under setting [2], 3.55 µM [falling, single point].
On to `CC(CCc1ccccc1)NS(=O)(=O)c1ccccc1` (stereo not drawn), for which the AC50 under setting [1] is 35.5 µM [rising, partial curve, poor fit].
For the molecule `N#Cc1c2ccc([N+](=O)[O-])cc2[n+]([O-])n1-c1ccccc1`, under setting [1], the AC50 was 6.51 µM [rising, partial curve].
On the same count and under the same terms, next, `CCCOc1ccccc1NC(=O)CC1Nc2ccccc2NC1=O` (stereo not drawn): 6.51 µM [falling, partial curve, poor fit]; `CCOC(=O)c1ccc(COc2nc3ccccc3nc2-c2ccccc2NC(C)=O)o1`: 7.31 µM [falling, single point].
With `CCC(CC)N1CCN(Cc2nc3ccc([N+](=O)[O-])cc3c(=O)n2-c2ccccc2F)CC1`, under setting [1], the AC50 is 12.6 µM [rising, partial curve, poor fit].
For the molecule `O=C(Nc1ccccc1Cl)Nc1ccccc1Cl`, under setting [1], the AC50 is 1.41 µM [falling, full curve].
`CCCCOC(=O)C1CCCC(C(=O)OCCCC)N1` (stereo not drawn): the AC50 under setting [1] is 11.2 µM [rising, partial curve, poor fit].
Still for that read-out and setting: to `CN1/C(=C\C(=O)CSc2nnc(NCc3ccccc3)s2)C(C)(C)c2ccccc21` belongs 29.1 µM [falling, single point]; to `COc1ccc(CCNC(=O)C(CCC(N)=O)NS(=O)(=O)c2ccc(Cl)cc2)cc1OC` (stereo not drawn), 3.98 µM [rising, partial curve, poor fit].
The same measure, in the same setting: next, `Cc1nc2sc(-c3ccccc3)cc2c(=O)n1/N=C/N(C)C`: 3.55 µM [falling, partial curve]; `CCOc1ccc(NC(=O)CN(C)C(=O)c2ccc3[nH]c4c(c3c2)CC(C)CC4)cc1OCC` (stereo not drawn): 3.26 µM [rising, partial curve, poor fit].
Consider `CC(C)C(=O)NC(Nc1cc(C(F)(F)F)ccc1Cl)C(Cl)(Cl)Cl` (stereo not drawn), for which the AC50 under setting [1] was 23.1 µM [falling, single point].
`COc1cc(SC)ccc1C(=O)NCCOc1ccc(F)cc1`: the concentration at half-maximal activity (AC50) under setting [1] is 4.61 µM [rising, full curve, poor fit].
Consider `CCOc1ccc(C(=O)c2cc([N+](=O)[O-])ccc2N2CCOCC2)cc1`, for which the AC50 under setting [2] was 0.291 µM [falling, full curve].
Take `COc1ccc(-c2noc(N3CCC(C(=O)Nc4ccc(OC)c(OC)c4)CC3)n2)cc1`: the AC50 under setting [1] is 3.16 µM [rising, single point].
On to `O=C(COC(=O)c1cc(Cl)ccc1O)NNC(=O)c1ccc([N+](=O)[O-])cc1`, for which the AC50 under setting [1] was 29.1 µM [rising, single point].
Take `Cc1cc(C)nc(SCC(=O)c2cc3ccccc3oc2=O)n1`: under setting [1], the AC50 was 4.61 µM [falling, full curve, poor fit].
As to `COc1ccc(CNC2CCN(Cc3ccccc3)CC2)cc1`, the AC50 under setting [1] is 10 µM [falling, partial curve, poor fit].
On the same count and under the same terms, to `O=c1cc(-c2ccccc2)[nH][nH]1` belongs 9.2 µM [falling, partial curve]; to `COC(=O)C1=C(C)N(Cc2ccccc2)C(=NCCc2c[nH]c3ccccc23)N[C@H]1c1cccc(C(F)(F)F)c1`, 10 µM [falling, partial curve] and 29.1 µM [falling, single point].
In the case of `C=CCn1c(-c2csc3ccccc23)n[nH]c1=S`, the AC50 under setting [2] was 20.6 µM [falling, single point].
For the molecule `COc1ccccc1NC(=O)COC(=O)c1ccc(N2CCCC2=O)cc1`, the AC50 under setting [1] is 1.84 µM [rising, partial curve, poor fit].
The same measure, in the same setting: to `O=C(COC(=O)CCN1C(=O)/C(=C\C=C\c2ccccc2)SC1=S)Nc1cc(F)ccc1F` belongs 0.1 µM [falling, full curve].
With `CC(=O)Nc1nc(C)c(-c2csc(Nc3ccc(O)cc3)n2)s1`, the AC50 was 7.31 µM [falling, partial curve] under setting [1] and 3.26 µM [falling, partial curve, poor fit] under setting [2].
As to `CCc1ccc([C@@H]2C[C@H]3CN(Cc4ccccc4OC)C(=O)[C@]34CCCN24)cc1`, under setting [1], the AC50 is 22.4 µM [falling, partial curve, poor fit].
On the same count and under the same terms, next, `Cc1nc2c3ccccc3nc(NNC(=O)CCC(=O)NC(C)C)n2n1`: 29.1 µM [falling, single point]; `O=c1ccsn1Cc1ccccc1`: 7.31 µM [falling, single point].
The same measure, in the same setting: to `CC(=O)c1ccc(NC(=O)C2CC(=O)N(Cc3ccccc3)C2)cc1` (stereo not drawn) belongs 29.1 µM [rising, single point].
The same measure, in the same setting: to `O=C1CCc2cc(S(=O)(=O)N3CCC(C(=O)NCCC4=CCCCC4)CC3)ccc2N1` belongs 29.1 µM [rising, single point]; to `O=Cc1cccn1-c1ccc(O)cc1`, 2.24 µM [rising, single point].
As to `CCC(=O)NCCc1nc2cc(NC(=O)c3ccc(F)cc3)ccc2n1C`, the AC50 under setting [1] was 35.5 µM [falling, single point].
For `Cc1ccc(C(C)C)c(OCC(=O)NN=C2CCCCCCC2)c1`, the concentration at half-maximal activity (AC50) by setting is: under setting [1], 29.1 µM [rising, single point]; under setting [2], 29.1 µM [falling, single point].
Regarding `COc1cc(CN2CCC(CO)(CCOc3ccccc3)CC2)cc(OC)c1`, the AC50 under setting [1] was 35.5 µM [rising, single point].
Still for that read-out and setting: to `COc1ccc(C2Nc3cc(OC)ccc3-n3cccc32)cc1` (stereo not drawn) belongs 0.447 µM [falling, full curve, poor fit].
Turning to `CCOC(=O)C1=CN(Cc2cccc(F)c2)S(=O)(=O)NC1c1ccc(F)c(Cl)c1` (stereo not drawn), the half-maximal activity concentration (AC50) by setting is: under setting [1], 14.6 µM [falling, single point]; under setting [2], 16.4 µM [rising, single point].
For the molecule `COc1ccc(NC(=O)c2cc(S(=O)(=O)N(Cc3ccccc3)c3ccccc3)ccc2Cl)cn1`, the AC50 under setting [1] is 32.6 µM [falling, single point].
On the same count and under the same terms, to `COCC(C)N=C1NN=C(c2cc(C)n(Cc3ccccc3Cl)c2C)CS1` (stereo not drawn) belongs 35.5 µM [falling, single point].
The same measure, in the same setting: next, `CCOC(=O)c1c(C)n(C)c2cc(-c3ccc(F)cc3)c(O)cc12`: 1.16 µM [rising, full curve, poor fit]; `COc1ccccc1Nc1ncc(-c2cccs2)s1`: 0.112 µM [rising, full curve, poor fit]; `CCCNc1ccc(S(=O)(=O)N(CC)CC)cn1`: 20.6 µM [rising, single point].
In the case of `OC(Cn1nnc2ccccc21)Cn1c(C(F)(F)F)nc2ccccc21` (stereo not drawn), under setting [1], the AC50 is 5.01 µM [falling, partial curve, poor fit].
As for `O=C(CC1(O)C(=O)N(Cc2cccc3ccccc23)c2ccccc21)c1cccnc1` (stereo not drawn), the AC50 is, setting by setting: under setting [1], 25.9 µM [rising, single point]; under setting [2], 23.1 µM [falling, single point].
Consider `Cc1ccccc1Cn1ccc(=NCc2ccccc2)cc1`, for which, under setting [1], the AC50 was 20.6 µM [falling, single point].
On the same count and under the same terms, to `Cc1cc(OC(F)F)ccc1NC(=O)Nc1ccc([N+](=O)[O-])cc1` belongs 29.1 µM [falling, single point]; to `Cc1ccc(OCCNC(=O)CCNC(=O)c2ccc(Cl)cc2)cc1`, 29.1 µM [rising, single point]; to `CC(C)CC(NC=C1C(=O)OC(C)(C)OC1=O)C(=O)O` (stereo not drawn), 2.24 µM [rising, full curve, poor fit].
For the molecule `COc1ccc(Br)cc1/C=N/Nc1cccc(C(=O)O)c1`, the AC50 under setting [1] was 10.3 µM [falling, partial curve, poor fit].
On the same count and under the same terms, next, `O=C(Nc1nc(-c2cccc(Br)c2)cs1)Oc1ccccc1`: 2.82 µM [rising, partial curve, poor fit]; `CC(C)CN(C(=O)Cn1ccccc1=O)C1CCS(=O)(=O)C1` (stereo not drawn): 1.64 µM [rising, partial curve, poor fit].
